Values from PubChem BioAssay AID743121 (NCATS, 2013)
Screen: 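Genes whose silencing strengthens cell killing by camptothecin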 (primary screen). Cell system: MDA-MB-231 cells, a human breast cancer line. Reagents: single siRNA against human genes, 20 nM siRNA (0.8 pmol per well). Timing: 120 h (drug added 48 h after transfection, read 72 h later). Treatment: camptothecin 20 nM (about EC30) for 72 h; vehicle 0.1% DMSO in parallel plates. Detection: 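Cell viability by ATP luminescence (CellTiter-Glo) as % of non-targeting siRNA wells, and the log2 ratio of viability without drug over viability with camptothecin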. Reading the numbers: log2 vehicle/camptothecin viability: higher = stronger sensitisation to camptothecin; viability with camptothecin and viability without drug: higher = more viable cells. Active means: 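Active genes have an RSA gene-level p-value below 0.001, computed from the ratios of their separate siRNAs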.
The deposit covers about 26,000 reagents; below is a part drawn at random. Over the whole deposit, 167 (0.63%) got an active call. 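Calls are per gene from RSA p-values that are not deposited; an individual active-marked siRNA can sensitise only weakly.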 Reagents against one gene are numbered here. No sequences are given here.

Target gene | siRNA no. | log2 vehicle/camptothecin viability | viability with camptothecin (% of control) | viability without drug (% of control) | outcome
RNF19A (ring finger protein 19A, RBR E3 ubiquitin protein ligase) | 1 | -0.284 | 59.4 | 48.8 | inactive
RNF19A (ring finger protein 19A, RBR E3 ubiquitin protein ligase) | 2 | -0.636 | 71.1 | 45.7 | inactive
RNF19A (ring finger protein 19A, RBR E3 ubiquitin protein ligase) | 3 | -0.057 | 101 | 97.3 | inactive
RNF19A (ring finger protein 19A, RBR E3 ubiquitin protein ligase) | 4 | 1.06 | 31.5 | 65.8 | inactive
FCSK (fucose kinase) | 1 | -0.268 | 83.4 | 69.3 | inactive
FCSK (fucose kinase) | 2 | 0.147 | 64 | 70.8 | inactive
FCSK (fucose kinase) | 3 | -0.356 | 55.8 | 43.6 | inactive
FCSK (fucose kinase) | 4 | 0.0644 | 87.2 | 91.2 | inactive
MAFB (MAF bZIP transcription factor B) | 1 | -0.34 | 88.9 | 70.2 | inactive
MAFB (MAF bZIP transcription factor B) | 2 | -0.145 | 56.9 | 51.5 | inactive
MAFB (MAF bZIP transcription factor B) | 3 | -0.00904 | 40.2 | 39.9 | inactive
SAP30 (Sin3A associated protein 30) | 1 | -0.102 | 62 | 57.7 | inactive
SAP30 (Sin3A associated protein 30) | 2 | -0.144 | 97.7 | 88.4 | inactive
SAP30 (Sin3A associated protein 30) | 3 | 0.0474 | 66.8 | 69 | inactive
DLAT (dihydrolipoamide S-acetyltransferase) | 1 | -0.126 | 93.6 | 85.8 | inactive
DLAT (dihydrolipoamide S-acetyltransferase) | 2 | 0.06 | 91.3 | 95.1 | inactive
DLAT (dihydrolipoamide S-acetyltransferase) | 3 | -0.107 | 50.1 | 46.5 | inactive
DLAT (dihydrolipoamide S-acetyltransferase) | 4 | -0.196 | 120 | 105 | inactive
PAPSS2 (3'-phosphoadenosine 5'-phosphosulfate synthase 2) | 1 | -0.146 | 99.9 | 90.2 | inactive
PAPSS2 (3'-phosphoadenosine 5'-phosphosulfate synthase 2) | 2 | 0.64 | 38.4 | 59.8 | inactive
PAPSS2 (3'-phosphoadenosine 5'-phosphosulfate synthase 2) | 3 | -0.351 | 102 | 80.3 | inactive
PAPSS2 (3'-phosphoadenosine 5'-phosphosulfate synthase 2) | 4 | -0.319 | 96.5 | 77.3 | inactive
CD276 (CD276 molecule) | 1 | 0.144 | 80.1 | 88.5 | inactive
CD276 (CD276 molecule) | 2 | 0.117 | 33.6 | 36.4 | inactive
CD276 (CD276 molecule) | 3 | 0.0559 | 54.9 | 57.1 | inactive
SHPRH (SNF2 histone linker PHD RING helicase) | 1 | -0.113 | 107 | 99.4 | inactive
SHPRH (SNF2 histone linker PHD RING helicase) | 2 | 0.0792 | 76.4 | 80.8 | inactive
SHPRH (SNF2 histone linker PHD RING helicase) | 3 | -0.204 | 96 | 83.4 | inactive
SHPRH (SNF2 histone linker PHD RING helicase) | 4 | -0.153 | 114 | 102 | inactive
ACE (angiotensin I converting enzyme) | 1 | -0.341 | 65.8 | 52 | inactive
ACE (angiotensin I converting enzyme) | 2 | -0.323 | 77.4 | 61.9 | inactive
ACE (angiotensin I converting enzyme) | 3 | -0.133 | 88 | 80.3 | inactive
ACE (angiotensin I converting enzyme) | 4 | -0.365 | 100 | 77.6 | inactive
RP1 (RP1 axonemal microtubule associated) | 1 | -0.122 | 115 | 106 | inactive
RP1 (RP1 axonemal microtubule associated) | 2 | 0.00843 | 56.9 | 57.2 | inactive
RP1 (RP1 axonemal microtubule associated) | 3 | -0.0958 | 104 | 97.1 | inactive
RP1 (RP1 axonemal microtubule associated) | 4 | -0.0235 | 51.5 | 50.7 | inactive
ROBO1 (roundabout guidance receptor 1) | 1 | -0.171 | 102 | 90.8 | inactive
ROBO1 (roundabout guidance receptor 1) | 2 | -0.474 | 93.2 | 67.1 | inactive
ROBO1 (roundabout guidance receptor 1) | 3 | -0.121 | 85.5 | 78.6 | inactive
ROBO1 (roundabout guidance receptor 1) | 4 | 0.258 | 60.5 | 72.4 | inactive
NUDCD1 (NudC domain containing 1) | 1 | -0.309 | 97 | 78.3 | inactive
NUDCD1 (NudC domain containing 1) | 2 | -0.0269 | 63.9 | 62.7 | inactive
NUDCD1 (NudC domain containing 1) | 3 | 0.0524 | 74 | 76.8 | inactive
NUDCD1 (NudC domain containing 1) | 4 | 0.0521 | 85.3 | 88.4 | inactive

An excerpt from above, reduced to “viability with camptothecin (% of control)”:
RP1 (RP1 axonemal microtubule associated) #4 = 51.5
ROBO1 (roundabout guidance receptor 1) #1 = 102
ROBO1 (roundabout guidance receptor 1) #2 = 93.2

Further reagents:
Target gene | siRNA no. | log2 vehicle/camptothecin viability | viability with camptothecin (% of control) | viability without drug (% of control) | outcome
MAFA (MAF bZIP transcription factor A) | 1 | -0.25 | 88.7 | 74.6 | inactive
MAFA (MAF bZIP transcription factor A) | 2 | 0.000478 | 91.2 | 91.2 | inactive
MAFA (MAF bZIP transcription factor A) | 3 | 0.789 | 12.2 | 21.1 | inactive
MAFA (MAF bZIP transcription factor A) | 4 | 0.23 | 63.3 | 74.2 | inactive
BRIP1 (BRCA1 interacting DNA helicase 1) | 1 | 0.19 | 41 | 46.8 | inactive
BRIP1 (BRCA1 interacting DNA helicase 1) | 2 | -0.206 | 104 | 89.8 | inactive
BRIP1 (BRCA1 interacting DNA helicase 1) | 3 | 0.14 | 82.8 | 91.3 | inactive
BRIP1 (BRCA1 interacting DNA helicase 1) | 4 | -0.165 | 104 | 92.8 | inactive
TIMP4 (TIMP metallopeptidase inhibitor 4) | 1 | 0.0822 | 75.8 | 80.2 | inactive
TIMP4 (TIMP metallopeptidase inhibitor 4) | 2 | 0.0804 | 84.7 | 89.6 | inactive
TIMP4 (TIMP metallopeptidase inhibitor 4) | 3 | 0.188 | 67.4 | 76.8 | inactive
TIMP4 (TIMP metallopeptidase inhibitor 4) | 4 | -0.22 | 94.5 | 81.1 | inactive
NR4A1 (nuclear receptor subfamily 4 group A member 1) | 1 | -0.308 | 75.9 | 61.3 | inactive
NR4A1 (nuclear receptor subfamily 4 group A member 1) | 2 | 0.203 | 22.7 | 26.1 | inactive
NR4A1 (nuclear receptor subfamily 4 group A member 1) | 3 | -0.318 | 75.9 | 60.9 | inactive
NR4A1 (nuclear receptor subfamily 4 group A member 1) | 4 | 0.0794 | 56.1 | 59.3 | inactive
PTPRE (protein tyrosine phosphatase receptor type E) | 1 | 0.454 | 63.9 | 87.5 | inactive
PTPRE (protein tyrosine phosphatase receptor type E) | 2 | -0.316 | 72.9 | 58.5 | inactive
PTPRE (protein tyrosine phosphatase receptor type E) | 3 | -0.318 | 63.7 | 51.1 | inactive
PTPRE (protein tyrosine phosphatase receptor type E) | 4 | 0.359 | 81.2 | 104 | inactive
FZD8 (frizzled class receptor 8) | 1 | -0.568 | 96 | 64.8 | inactive
FZD8 (frizzled class receptor 8) | 2 | 0.00304 | 35.6 | 35.7 | inactive
FZD8 (frizzled class receptor 8) | 3 | -0.0519 | 111 | 107 | inactive
FZD8 (frizzled class receptor 8) | 4 | -0.348 | 95.5 | 75 | inactive
